In PMC9898264:
Results are given in words; binding and its absence hold for the method and conditions named. In cells and extracts the contact can be indirect. Some results given as binding are weak or reduced against the parent protein; the word gives no strength.

Amino acid sequences for entries named in this document (tags omitted). Residues count along the entry.
UniProt Q9JM53, residues 102-612: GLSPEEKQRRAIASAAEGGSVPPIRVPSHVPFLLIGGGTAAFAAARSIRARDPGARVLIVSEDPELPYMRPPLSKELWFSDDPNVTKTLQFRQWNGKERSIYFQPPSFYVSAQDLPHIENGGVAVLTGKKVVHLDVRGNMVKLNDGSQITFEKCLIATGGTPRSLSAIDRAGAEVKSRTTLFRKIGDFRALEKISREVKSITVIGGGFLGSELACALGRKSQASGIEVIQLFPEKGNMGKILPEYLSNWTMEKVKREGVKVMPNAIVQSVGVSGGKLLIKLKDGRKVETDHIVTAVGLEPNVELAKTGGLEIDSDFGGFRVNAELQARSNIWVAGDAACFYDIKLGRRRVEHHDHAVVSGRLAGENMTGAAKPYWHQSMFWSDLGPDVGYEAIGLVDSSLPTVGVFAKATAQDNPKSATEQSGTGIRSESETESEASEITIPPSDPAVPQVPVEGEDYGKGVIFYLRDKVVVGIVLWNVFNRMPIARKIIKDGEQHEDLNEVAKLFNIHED
UniProt Q68FX9, residues 37-310: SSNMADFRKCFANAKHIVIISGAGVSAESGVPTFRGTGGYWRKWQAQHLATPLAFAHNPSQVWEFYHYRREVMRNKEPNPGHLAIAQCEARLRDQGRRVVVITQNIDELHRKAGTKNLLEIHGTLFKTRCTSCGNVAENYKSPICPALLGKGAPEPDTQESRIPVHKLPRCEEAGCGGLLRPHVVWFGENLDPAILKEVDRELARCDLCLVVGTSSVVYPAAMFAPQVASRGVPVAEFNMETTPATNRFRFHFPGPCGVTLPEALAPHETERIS

Key:
[1] = molecular target: apoptosis-inducing factor mitochondrion-associated 1 (AIFM1) (rat (endogenous in rat NP cells)) (UniProt Q9JM53); assay: co-IP; endogenous proteins in rat NP cells; IP with 5 ug anti-AIFM1 or 4 ug anti-SIRT5, Protein A/G magnetic beads, Western blot; AIFM1-CHCHD4 co-IP done in si-NC and si-Sirt5 cells
[2] = molecular target: Sirtuin 5 (SIRT5) (rat (endogenous in rat NP cells)) (UniProt Q68FX9); assay: as above
[3] = molecular target: apoptosis-inducing factor mitochondrion-associated 1 (AIFM1) (rat (endogenous in rat NP cells)) (UniProt Q9JM53); assay: co-IP; in vitro succinylation assay: AIFM1 purified from NP cells, incubated with different concentrations of succinyl-CoA in succinylation buffer (20 mmol/L HEPES pH 8.0, 1 mmol/L DTT, 1 mmol/L PMSF, 0.1 mg/mL BSA) 15 min at 30 °C; Western blot of succinylated AIFM1 and of CHCHD4 bound to AIFM1

Molecule	binding [1]	binding [2]	binding [3]
Sirtuin 5 (SIRT5) (from UniProt Q68FX9 37-310) (enzyme)	binds	–	–
apoptosis-inducing factor mitochondrion-associated 1 (AIFM1) (from UniProt Q9JM53 102-612)	–	binds	–
CHCHD4 (protein, UniProt Q5BJN5 1-139) MSYCRQEGKDRIIFVTKEDHETPSSAELVADDPNDPYEEHGLILPNGDINWNCPCLGGMASGPCGEQFKSAFSCFHYSTEDIKGSDCIDQFRAMQECMQKYPDLYPQDEEEEEEAKPVEPVEETADTKASAAKEQGASS	binds	–	binds
